{"source": "PubChem BioAssay AID493246 (Drosophila RNAi Screening Center, 2011)", "screen": "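Identify essential fly genes by loss of cell viability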 (primary screen)", "cells": "Drosophila Kc and S2R+ cells", "reagent": "long dsRNA against Drosophila genes", "read-out": "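Raw, unnormalised count of remaining cells in each well; per-plate z-scores of cell number underlie the calls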", "reading the numbers": "Kc cell number and S2R+ cell number: higher = more cells remaining", "rule for the call": "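Counted as a hit if cell number falls by a z-score of at least 3 within its plate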", "note": "The screen tested about 21,000 reagents; shown is an unselected part of those with a known target gene and a result. In the full data, 429 (2%) were called active. 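Values are raw and not normalised between plates; calls rest on per-plate z-scores that were not deposited.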 Unmarked entries are inactive. The numbers tell different reagents against one gene apart. A plus sign joins genes that one reagent is predicted to hit. No sequences are given here. Not given: the amount of reagent, the time to read-out."}
{"target": "Argk2 (Arginine kinase 2)", "dsRNA no.": 1, "Kc cell number, rep 1": 1.52e6, "Kc cell number, rep 2": 1.76e6, "S2R+ cell number, rep 1": 1.29e6, "S2R+ cell number, rep 2": 1.38e6}
{"target": "CG6574", "dsRNA no.": 1, "Kc cell number, rep 1": 1.44e6, "Kc cell number, rep 2": 1.54e6, "S2R+ cell number, rep 1": 1.31e6, "S2R+ cell number, rep 2": 1.46e6}
{"target": "CG42748", "dsRNA no.": 1, "Kc cell number, rep 1": 1.45e6, "Kc cell number, rep 2": 1.53e6, "S2R+ cell number, rep 1": 1.30e6, "S2R+ cell number, rep 2": 3.04e5}
{"target": "CG42748", "dsRNA no.": 2, "Kc cell number, rep 1": 1.46e6, "Kc cell number, rep 2": 1.51e6, "S2R+ cell number, rep 1": 1.03e6, "S2R+ cell number, rep 2": 1.15e6}
{"target": "CG42748", "dsRNA no.": 3, "Kc cell number, rep 1": 1.48e6, "Kc cell number, rep 2": 1.56e6, "S2R+ cell number, rep 1": 1.17e6, "S2R+ cell number, rep 2": 2.68e5}
{"target": "hpRNA:CR18854 + IP3K1", "dsRNA no.": 1, "Kc cell number, rep 1": 1.31e6, "Kc cell number, rep 2": 1.42e6, "S2R+ cell number, rep 1": 1.04e6, "S2R+ cell number, rep 2": 1.16e6}
{"target": "CG12674", "dsRNA no.": 1, "Kc cell number, rep 1": 1.43e6, "Kc cell number, rep 2": 1.51e6, "S2R+ cell number, rep 1": 1.00e6, "S2R+ cell number, rep 2": 1.15e6}
{"target": "NTPase", "dsRNA no.": 1, "Kc cell number, rep 1": 1.25e6, "Kc cell number, rep 2": 1.32e6, "S2R+ cell number, rep 1": 6.34e5, "S2R+ cell number, rep 2": 7.08e5}
{"target": "Tbh (Tyramine beta hydroxylase)", "dsRNA no.": 1, "Kc cell number, rep 1": 1.49e6, "Kc cell number, rep 2": 1.48e6, "S2R+ cell number, rep 1": 1.04e6, "S2R+ cell number, rep 2": 1.09e6}
{"target": "CG15097", "dsRNA no.": 1, "Kc cell number, rep 1": 1.24e6, "Kc cell number, rep 2": 1.35e6, "S2R+ cell number, rep 1": 1.01e6, "S2R+ cell number, rep 2": 8.89e5}
{"target": "Taf4 (TBP-associated factor 4)", "dsRNA no.": 1, "Kc cell number, rep 1": 1.63e6, "Kc cell number, rep 2": 1.71e6, "S2R+ cell number, rep 1": 1.03e6, "S2R+ cell number, rep 2": 1.11e6}
{"target": "CG32548", "dsRNA no.": 1, "Kc cell number, rep 1": 1.57e6, "Kc cell number, rep 2": 1.56e6, "S2R+ cell number, rep 1": 1.15e6, "S2R+ cell number, rep 2": 1.31e6}
{"target": "CG32548", "dsRNA no.": 2, "Kc cell number, rep 1": 1.69e6, "Kc cell number, rep 2": 1.71e6, "S2R+ cell number, rep 1": 1.11e6, "S2R+ cell number, rep 2": 1.20e6}
{"target": "CG42260", "dsRNA no.": 1, "Kc cell number, rep 1": 5.49e5, "S2R+ cell number, rep 1": 8.30e5}
{"target": "CG42260", "dsRNA no.": 2, "Kc cell number, rep 1": 1.51e6, "Kc cell number, rep 2": 1.59e6, "S2R+ cell number, rep 1": 1.23e6, "S2R+ cell number, rep 2": 1.36e6}
{"target": "CG42260", "dsRNA no.": 3, "Kc cell number, rep 1": 1.66e6, "Kc cell number, rep 2": 1.72e6, "S2R+ cell number, rep 1": 1.23e6, "S2R+ cell number, rep 2": 1.35e6}
{"target": "CG34367", "dsRNA no.": 1, "Kc cell number, rep 1": 1.64e6, "Kc cell number, rep 2": 1.68e6, "S2R+ cell number, rep 1": 1.16e6, "S2R+ cell number, rep 2": 1.31e6}
{"target": "CG34367", "dsRNA no.": 2, "Kc cell number, rep 1": 1.49e6, "Kc cell number, rep 2": 1.55e6, "S2R+ cell number, rep 1": 1.17e6, "S2R+ cell number, rep 2": 1.28e6}
{"target": "yin", "dsRNA no.": 1, "Kc cell number, rep 1": 5.60e5, "S2R+ cell number, rep 1": 8.69e5}
{"target": "CG3632", "dsRNA no.": 1, "Kc cell number, rep 1": 1.41e6, "Kc cell number, rep 2": 1.67e6, "S2R+ cell number, rep 1": 1.17e6, "S2R+ cell number, rep 2": 1.35e6}
{"target": "CG3632", "dsRNA no.": 2, "Kc cell number, rep 1": 6.13e5, "S2R+ cell number, rep 1": 8.67e5}
